The whole screen tested about 31,000 sequences, of which about 1,400 (4.5%) were called active.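 Rule for the calls: active = median seed-adjusted z-score above 1 or below -1; inactive = the rest.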 This is one part of the list.

A short description of the assay: Novel Modifiers of Survival Motor Neuron (SMN) Protein: Gene Identification via Genome-wide siRNA Screen.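 Note: luminescence tracks full-length SMN protein made from the SMN2 reporter.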 The conditions noted are these: HEK293T SMN2-luciferase reporter, siRNA knockdown, 72 h; actives lie on both sides. The procedure, abridged: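 Steps: spot 1 pmol siRNA, add Lipofectamine RNAiMax in serum-free DMEM, seed HEK293T SMN2–luciferase reporter cells; incubate 72 h at 37 °C; add ONE-Glo; normalize luminescence to control siRNA, log10, MAD. Candidates: |MAD| > 1.0.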
In general terms: A reporter such as luciferase makes a cellular process visible.
AGAAGAUUUUAGCUAGUAATT against CHRAC1: the median seed-adjusted z-score is inactive: 0.193.
The value for GGACCGCAGCAAUGACAUUTT against SH3KBP1 was inactive: -0.34; that for CCCUGACUCUUGGAUAUGATT against MEOX1 was inactive: 0.0171; that for GCUACGUCUUUGCCCAGGATT against SBK1 was inactive: 0.0587.
Under GCACGGCUUUAAUAGAAGUTT against PARP15 stands inactive: -0.332; under GGAAAAGAAAGUUACUGGATT against IFIT2, inactive: -0.0205.
The value for CAUCACCUUUUCUACUGAATT against LRIT3 was inactive: 0.0324; that for CGGUUUGAACGGUUCCGAATT against TOM1 was inactive: 0.774.
On to AAGUGGAAGCGAAGCCGAATT against HMGN1, for which the median seed-adjusted z-score is inactive: -0.183.
Under GGCUUAAGAUGAUGUUUGATT against LIMA1 stands inactive: -0.359; under ACAUCUAUAUGGACUCAGATT against PCTP, inactive: 0.446.
Under GCAAGAAUCAGAUAUCGGATT against SLIT3 stands inactive: -0.453; under CUGUAAUUAUGGAAACGGATT against SCUBE1, inactive: 0.673.
The value for GGAGGAGAGUCGCUACCUATT against CREBZF was inactive: 0.424; that for CGACUGGAUGUAUAAGCAUTT against TGIF2LX was inactive: -0.568; that for GGAAUAGAAUUAGUUCGAATT against RBM44 was inactive: -0.00558.
For GCUGUCAGCCCAUUCUAUATT against RAX2, the median seed-adjusted z-score is inactive: 0.345.
The value for GUAUGAUUGGUGUAACUCATT against DHX40 was inactive: -0.75.
The value for GCAGUUGGAGAGAUAAUAATT against VRK1 was inactive: -0.148; that for GCAUGGAAACAGCACCUAATT against ZNF131 was inactive: 0.645; that for AGAAUACGCUGGACCGCUATT against KCND1 was inactive: -0.359.
Under GAACCAUGGAUGGUGAUAATT against ZNF287 stands inactive: 0.0213; under GCUACAGUCUCUACCCUGATT against BARX1, active: 1.63.
In the case of GAGCAUCGACUGUACGAAATT against DHX34, the median seed-adjusted z-score is inactive: -0.269.
Under GACAACUAUUCCAAUAUUATT against MTMR6 stands inactive: -0.395; under CCACGUUCAUUUAACUGAATT against HEMK1, inactive: 0.101.
Under UCAUCUCACUGAAUGAAAATT against CHRNE stands inactive: 0.349.
Under CCAGCGCACCUUUGCCUAUTT against TRIM46 stands inactive: 0.034; under GGAUGGACAUCAUAACCAUTT against ADI1, inactive: 0.0593; under GACUUACUAUUAUCAAGGUTT against TMPRSS11B, inactive: -0.545.
As for GCAAAUACGGUUUACUCCATT against SLAMF7, the median seed-adjusted z-score was inactive: -0.478.
The value for GAUCCACCUUAUACUCAUATT against EPS8 was inactive: 0; that for GACUGAAUUUUGUACUGAATT against CLCA3 was inactive: 0.424.
In the case of GCAUGAACAUUGCAUUGCATT against GPN3, the median seed-adjusted z-score is inactive: -0.796.
The value for CCCUGUCAGGUAUCAAAGATT against MYBL2 was inactive: 0.592; that for CAUCAUGACAUGUAUGAUUTT against PAFAH1B3 was inactive: -0.381.
For GAACUAUGUUUAACUUGGATT against NOTO, the median seed-adjusted z-score was inactive: -0.193.
Consider GUGUUGGACUGGAUUGAAATT against KALRN, for which the median seed-adjusted z-score is inactive: 0.305.
Under CAACAGUUGCGUCACAGAATT against BNIP1 stands inactive: 0.259; under GAACUUUGAUGACGAGUGATT against RAD23A, active: -1.13; under CCACUCUUCUGAUCAGAAATT against HSD11B1, inactive: -0.174.
The value for CGGUUGUCAUAUUUAUUGATT against ZNF764 was inactive: 0.184.
The value for GUAAAGUUGUUGACAGUGUTT against AKTIP was inactive: -0.194.
CACUGUACAGGAUACAUCATT against ARNT2: the median seed-adjusted z-score is inactive: -0.244.
The value for GGCUAUGACGGGAAGGAGATT against PTPN7 was inactive: -0.189; that for AAUUGGAGCUGAUUUCUUATT against GOT1 was inactive: 0.0103.
The value for GCUACACGGACAUCCCAAATT against RTEL1 was inactive: 0.458.
The value for GAAGAGUGCUUGAAAUUUUTT against GFRA1 was inactive: 0.125; that for GGAUGAAGCUAGAAUUAAATT against BHMT2 was inactive: -0.0704; that for CGCUUUUCGUUGUAAAUAUTT against NKX2-2 was inactive: -0.0805.
In the case of AAACGGGAGUGUGCAGUCATT against TMED1, the median seed-adjusted z-score is inactive: 0.
GAACAAAGGUCAGUUCUUATT against PHF10: the median seed-adjusted z-score is inactive: -0.199.
With GACUCUUAGAGGCAUCUAATT against TNKS, the median seed-adjusted z-score was inactive: 0.193.
With GGAACAUCGUCUUGAGCAATT against ECHDC3, the median seed-adjusted z-score is inactive: 0.378.
Take ACCACAUGGUGUACCGGAUTT against PSCD2: the median seed-adjusted z-score was inactive: -0.126.
Under CCACGAAGCCUACAAGCAATT against NQO2 stands inactive: -0.0723.
As to GAAUAGUAAAGAACCUUGATT against CHAT, the median seed-adjusted z-score is inactive: -0.109.
Take CUACAAGAGUGGGAAGUUUTT against UBE2M: the median seed-adjusted z-score was inactive: 0.0974.
Under GGAUCAUCAAGGUGAAACATT against CCL8 stands inactive: 0.436; under GGAUCCAUCAUAUAGUUCATT against PRKAA1, inactive: 0.0423.
Under GCACUUACCAGAGCUUGAATT against SLC25A30 stands inactive: 0; under AGUCCUUUAUUAAGCGCAATT against INCENP, inactive: -0.339; under GAAUAACGAUCCCAGAUAATT against IL31RA, inactive: 0.36.
The value for GGAACGGGAUUUAUUAAAATT against PDE4D was inactive: 0.
GGAAAAUCAUCUUAUCAGATT against TEAD1: the median seed-adjusted z-score is active: 1.31.
The value for GGAAAUACAUAUCGAAUGATT against GNE was inactive: 0.393; that for GGAGUAUCUUCAAGUACAATT against GNG5 was inactive: -0.215.
GACUAAUGAACUACUAAAATT against HMMR: the median seed-adjusted z-score was inactive: 0.389.
Under GGUACCAAAUGAUUACGUATT against ABI2 stands inactive: -0.0392.
Under CACACUCACUUAAAGAAAATT against NRGN stands inactive: -0.381; under CCAACAAGCUGUCUCCCUATT against CENPB, inactive: 0.292.
The value for AUAUCAGGGUGAAGACUCATT against ZNF22 was inactive: 0.47; that for CGGCUUAAUUCAAGGAGUATT against HIAT1 was inactive: -0.0612; that for GCUUAUUCCUUGUGCAGAATT against KLB was inactive: 0.221.
For the sequence GGUCUAUGAUGGUGACGAUTT against EBP, the median seed-adjusted z-score was inactive: 0.017.
The value for GCAAACUACUUGGAUAGUATT against ADAM9 was inactive: 0; that for GCAGUACCUCAAAUCGUUUTT against PPP1R12A was inactive: -0.103; that for GCUAUAAUCUUACUCAACATT against ZNF546 was inactive: 0.497.
Under GAAUGUAUCCGGCACGAGATT against UBE2Z stands inactive: 0.0572; under GAUCAUGGAUUAUAGCCUUTT against PIP5K1B, inactive: 0.0917.
Take CCGGCAAAUUCAUCUCUUUTT against CASZ1: the median seed-adjusted z-score was inactive: 0.263.
Under GCUUUCAUCGGCUCCAUAATT against CARM1 stands inactive: 0.317; under GGAUAUUUGCAAGACGAGATT against KCNT1, inactive: 0.379; under GCAGAUUGAUGGUAUUGGATT against FBXO4, inactive: -0.0767.
The value for GCAUUCCGCUCAAAGGUCATT against GPR171 was inactive: -0.449.
Under CAAAGAUAGUGAUUGGUUATT against EIF4E stands inactive: -0.404; under GGUCGGAGAUUUGCAAGGATT against LTBP3, inactive: -0.0236; under GGAUCUAAUCUUAGAUGUATT against POLR2H, active: -2.74.
As to CCUUAUCGAUAUUAUGAGATT against CPEB2, the median seed-adjusted z-score was inactive: -0.00928.
Under GAGCAGUACAGAACAGGAATT against HAAO stands inactive: 0.214.
The value for ACAACUUUGCUAUCCAGGATT against LOXL4 was inactive: -0.591.
As for GAGCUAGCGAAUAACCUUATT against DDX42, the median seed-adjusted z-score is active: -2.13.
Regarding GAAAGAGGAUUAAAGAGAATT against DECR2, the median seed-adjusted z-score was inactive: 0.
The value for GCCGUAUGAGUGUACCGAATT against ZNF300 was inactive: -0.302; that for GAACUGCACCAAAGAAACATT against AKTIP was inactive: -0.194; that for GGAAUUAUCUGUUUGGACATT against MIER1 was inactive: 0.0271.
The value for GUGCAGAAGCGACAAAUGATT against TXK was inactive: -0.109; that for GAAGGAUAUUUAGAGCGGATT against MYST3 was inactive: -0.49; that for GGAUCAUCCUGAUAUUGUUTT against IPO13 was inactive: 0.612.
The value for GGCAGUUAAUGGAGAAGUUTT against TERF2IP was inactive: 0.765.
For CCAGAAUCCAGUUCUCCGATT against TLR6, the median seed-adjusted z-score was inactive: 0.505.
The value for GUUAAUCACCUGUAUGUCATT against RAPGEF5 was inactive: 0.529; that for CGAGUGAAAGAAUCAAUAUTT against OXSR1 was inactive: -0.0682; that for GUCGCUCUAUCACAAAGAATT against FOXK1 was inactive: 0.63.
Consider GGUUAUAACGGGACGAUUUTT against KIF5C, for which the median seed-adjusted z-score is inactive: 0.283.
As to GGUCUGUUCUGCAAGCACATT against PARVG, the median seed-adjusted z-score was inactive: 0.321.
GCUACAUCCAUACCAGAUATT against NR2E1: the median seed-adjusted z-score was inactive: 0.559.

The record behind these values is PubChem BioAssay AID1347426 (Functional Genomics Laboratory (NCATS/FGL), 2020).
